PubChem BioAssay AID1259308 | NCATS, 2017
The whole screen tested about 59,000 reagents; this is an unselected part. Over the whole deposit, about 1,510 (2.6%) got an active call. 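Calls use total luciferase alone and ignore viability, so some active siRNAs may act by altering cell number.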 A number with no mark means an inactive call. Reagents against one gene are numbered here. Further read-outs or replicates are left out here.

Assay: 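Candidate targets for better recombinant protein yield in mammalian cells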 (primary screen)
Cells: human HEK293 embryonic kidney cells stably expressing firefly luciferase (HEK-CMV-Luc2-Hygro)
Knock-down reagent: single siRNA against human genes, 0.8 pmol siRNA per well
Timing: 72 h
Detection: 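Reporter luminescence and viable-cell signal on separate replicate plates, given as percent of non-targeting control and median/MAD z-scores, plus per-cell luciferase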
Direction: total luciferase, z-score: higher = more reporter protein produced
Active means: 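Active when the median/MAD z-score for overall luciferase is greater than 3; a gene was taken forward for validation with new siRNAs if at least two of its three siRNAs passed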
Meaning of the calls: active = raised luciferase; inactive = no rise

total luciferase, z-score, by gene symbol and reagent
NKAPD1 (NKAP domain containing 1): #1 -0.23; #2 -0.00867; #3 -0.611
FIGNL1 (fidgetin like 1): #1 0.684; #2 -0.274; #3 -0.133
SVIL (supervillin): #1 0.282; #2 0.101; #3 1.22
SLC25A28: #1 -1.82; #2 -0.737; #3 -1.34
FCF1 (FCF1 rRNA-processing protein): #1 -1.88; #2 -2.26; #3 -2.38
TINAG (tubulointerstitial nephritis antigen): #1 -0.58; #2 -1.22; #3 -0.266
C19orf44 (chromosome 19 open reading frame 44): #1 1.15; #2 1.28; #3 -0.731
NKAIN1 (sodium/potassium transporting ATPase interacting 1): #1 1.85; #2 0.295; #3 5.07 (active)
IHH (Indian hedgehog signaling molecule): #1 -0.178; #2 -0.207; #3 2.78
ELK1 (ETS transcription factor ELK1): #1 -1.12; #2 0.542; #3 -2.53
ITGAD (integrin subunit alpha D): #1 0.391; #2 -0.115; #3 -0.641
H2AX (H2A.X variant histone): #1 1.88; #2 -0.445; #3 0.368
SLC2A6: #1 2.6; #2 0.998; #3 -0.15
PLAAT3 (phospholipase A and acyltransferase 3): #1 0.5; #2 1.77; #3 -0.507
RHBDF1 (rhomboid 5 homolog 1): #1 -0.337; #2 -0.58; #3 1.05
EBPL (EBP like): #1 0.673; #2 0.675; #3 1.25
FMNL1 (formin like 1): #1 -0.932; #2 0.043; #3 -1.12
ARPC1A (actin related protein 2/3 complex subunit 1A): #1 0.673; #2 0.0594; #3 -2.29
IP6K2 (inositol hexakisphosphate kinase 2): #1 -1.6; #2 -0.512; #3 0.634
ZNF750 (zinc finger protein 750): #1 -0.358; #2 -1.41; #3 -0.759
HMGN1P21: #1 -2.17; #2 0.285; #3 0.793
GINS4 (GINS complex subunit 4): #1 0.0362; #2 0.714; #3 0.675
FN3K (fructosamine 3 kinase): #1 2.32; #2 -0.209; #3 -0.85
ERG28 (ergosterol biosynthesis 28 homolog): #1 0.745; #2 -0.157; #3 -0.164
IQCJ (IQ motif containing J): #1 -0.439; #2 0.353; #3 -0.395

Reprinted from above for reference:
total luciferase, z-score, by gene symbol and reagent
SLC2A6: #3 -0.15
PLAAT3 (phospholipase A and acyltransferase 3): #1 0.5; #2 1.77; #3 -0.507
RHBDF1 (rhomboid 5 homolog 1): #1 -0.337
